Assay results as given in patent publication US9409952B2 (Chugai Seiyaku Kabushiki Kaisha, priority 2011, dated 2016).
Positions of bridges follow the written chain, without caps; N, C: chain ends. Non-standard residues stand in square brackets, D forms with d. *: point of attachment. Ala(1H-tetrazol-5-yl) = N[C@@H](Cc1nnn[nH]1)C(=O)O; NMeF = CN[C@@H](Cc1ccccc1)C(=O)O; PhLac = O=C(O)[C@@H](O)Cc1ccccc1; dPhLac = O=C(O)[C@H](O)Cc1ccccc1; NMeL = CN[C@@H](CC(C)C)C(=O)O; NMeA = CN[C@@H](C)C(=O)O; Piperidide = C1CCN(*)CC1; Boc = CC(C)(C)OC(=O)*; SBn = c1ccc(CS*)cc1; StBu = CC(C)(C)S*; tBu = CC(C)(C)*

experiment: general procedure: Fmoc solid-phase peptide synthesis; 2-Chlorotrityl resin; DIC/HOAt; settings: coupling step

Going from “C(Cys(CH2CONH2)-Thr(tBu)-Thr(tBu)-Thr (tBu)-Arg (Pbf)-Asp)-Tyr (tBu)-Tyr (tBu)-Arg (Pbf)-Gly-Gly-OH” to “Fmoc-Phe-tBuSSlac-Phe-Lys(Alloc-Cys(StBu))-Leu-MeAla-MeLeu-Ala-MePhe-MeAla-Ala-OH”, the step yield rises from 7.3% to 54%.

same assay, conditions: cyclisation step

First: *Cys(SPy)-Lys(Me2)-Trp-^HOGly-Pro-Lys(H-Cys(SPy))-Asp*-Pro-NH2, cyclized at two * sites
Second: *Phe-tBuSSlac-Phe-Lys(Alloc-Cys(StBu))-Leu-MeAla-MeLeu-Ala-MePhe-MeAla-Ala*, cyclized at two * sites
The cyclisation yield of the first is lower: 60% for the first, 76% for the second.

Substance “c(^HOGly-Phe-Lys (N3)-Leu-MeAla-MeLeu-Ala-MePhe-MeAla-Ala-Phe-Cys(StBu)-Pro)” has a cyclisation yield of 39%.

same assay, conditions: cyclisation step, on linear precursor

First: *Phe-MeLeu-MeVal-MeGly-Thr-MeAla-Ala-MeLeu-Leu-Phe*-Piperidine (C—C-Bonded Between Two * Sites)
Second: *Phe-^MeLeu-^MeVal-^MeGly-Thr-^MeAla-Ala-^MeLeu-Leu-Phe*-Piperidine (C—C Bonded Between Two * Sites)
The cyclisation yield of the first is higher: 6.5% for the first, 4.8% for the second.

In the case of “c(Cys(CH2CONH2)-Thr(tBu)-Thr(tBu)-Thr(tBu)-Arg(Pbf)-Asp)-OBn”, the cyclisation yield is reported as 52%.

same assay, conditions: late stage modification step

First: 2-(ethyldisulfanyl)-6-methylphenyl (3S,6S,9S,12S,18S,21S,24S,27S,30S)-30-amino-6,18-dibenzyl-21-((R)-1-hydroxyethyl)-12,24-diisobutyl-9,27-diisopropyl-10,13,19,25-tetramethyl-3-(methyl((S)-1-oxo-1-(((S)-1-oxo-1-(piperidin-1-yl)propan-2-yl)amino)-3-phenylpropan-2-yl)carbamoyl)-5,8,11,14,17,20,23,26,29-nonaoxo-4,7,10,13,16,19,22,25,28-nonaazahentriacontan-1-oate
Second: (5S,8S,11S,14S,17S,23S,26S,29S,32R)-5,11-dibenzyl-26-(tert-butoxymethyl)-29-((S)-sec-butyl)-17-((R)-1-hydroxyethyl)-14,23-diisobutyl-4,7,8,10,13,19,22,28-octamethyl-32-(piperidine-1-carbonyl)-1-thia-4,7,10,13,16,19,22,25,28,31-decaazacyclotritriacontane-3,6,9,12,15,18,21,24,27,30-decone 1-oxide
The step yield of the first is lower: 51% for the first, 68% for the second.

Going from “(5S,8S,11S,14S,20S,23S,26S,29R)-8-benzyl-23-(tert-butoxymethyl)-26-((S)-sec-butyl)-14-((R)-1-hydroxyethyl)-11,20-diisobutyl-4,5,7,10,16,19,25-heptamethyl-29-(piperidine-1-carbonyl)-1-thia-4,7,10,13,16,19,22,25,28-nonaazacyclotriacontane-3,6,9,12,15,18,21,24,27-nonone 1,1-dioxide” to “*Phe-tBuSSlac-Phe-Lys(H-Cys(StBu))-Leu-MeAla-MeLeu-Ala-MePhe-MeAla-Ala*, cyclized at two * sites”, the step yield rises from 84% to 88%.

Compared with “Acbz-Cys(StBu)-Gly-Lys(Me2)-Trp-Cys (StBu)-Pro-^HOGly-Lys (Acbz)-Asp (SBn)-Pro-NH2”, “Acbz-Cys(StBu)-Gly-Lys(Me2)-Trp-Cys(StBu)-Pro-Lac-Lys(Acbz-Thz)-Asp(SBn)-Pro-NH2” is lower in step yield: 71% for the first, 70% for the second.

Compared with “Acbz-Cys(StBu)-Lys(Me2)-Trp-^HOGly-Pro-Lys(Acbz-Thz)-Asp(SBn)-Pro-NH2”, “Ala*-Pro-Val-Ile-MePhe-Met(O2)-Pro-MePhe(3-Cl)-Val-Met(02)-Asp*-Pro-MeGly-Ser-NH(CH2)2NMe2” is higher in step yield: 85% for the first, 91% for the second.

First: Ala-Val-MeLeu-Thr-MePhe-Gly-MeLeu-MeVal-Phe-Asp(SBn)-MePhe-Ala-piperidine
Second: Boc-AA[NMeF]GLAVFD(SBn)[NMeA]S(tBu)G-NH2
The step yield of the first is lower: 22.9% for the first, 51% for the second.

Compared with Boc-AA[NMeF]GLAVFD[NMeA]S(tBu)G-NH2, “Boc-Ala-Val-MeLeu-Thr(Trt)-MePhe-Gly-MeLeu-MeVal-Phe-Asp(SBn)-MePhe-Ala-piperidine” is lower in step yield: 88% for the first, 62.3% for the second.

Compared with “Boc-Ala-Val-MeLeu-Thr(Trt)-MePhe-Gly-MeLeu-MeVal-Phe-Asp-MePhe-Ala-piperidine”, “Boc-FA[NMeF]GLAVFD(SBn)[NMeA]S(tBu)G-NH2” is lower in step yield: 99% for the first, 39% for the second.

Compared with Boc-FA[NMeF]GLAVFD[NMeA]S(tBu)G-NH2, “Boc-GA[NMeF]G[NMeL]AVFD(SBn)[NMeA]S(tBu)G-NH2” is lower in step yield: 83% for the first, 21.8% for the second.

First: Boc-GA[NMeF]G[NMeL]AVFD[NMeA]S(tBu)G-NH2
Second: Boc-MeAla-Val-MeLeu-Thr(Trt)-MePhe-Gly-MeLeu-MeVal-Phe-Asp(O(2-EtSS-6-Me-Ph))-MePhe-Ala-piperidine
The step yield of the first is lower: 44% for the first, 80% for the second.

Going from “Boc-MeAla-Val-MeLeu-Thr(Trt)-MePhe-Gly-MeLeu-MeVal-Phe-Asp(SBn)-MePhe-Ala-piperidine” to “Boc-MeAla-Val-MeLeu-Thr(Trt)-MePhe-Gly-MeLeu-MeVal-Phe-Asp-MePhe-Ala-piperidine”, the step yield rises from 71.0% to 95%.

Compared with “C(Cys(CH2CONH2)-Thr-Thr-Thr-Arg-Asp)-Tyr-Tyr-Arg-Gly-Gly-OH”, Fmoc-Asp(OBn)-MePhe-MePhe-Ala-pip is higher in step yield: 20% for the first, 92% for the second.

Compared with Fmoc-Asp-MePhe-MePhe-Ala-pip, “H-Cys(StBu)-Gly-Lys(Me2)-Trp-Cys(StBu)-Pro-^HOGly-Lys-Asp(SBn)-Pro-NH2” is lower in step yield: 66% for the first, 58% for the second.

Going from “MeAla-Val-MeLeu-Thr-MePhe-Gly-MeLeu-MeVal-Phe-Asp(O(2-EtSS-6-Me-Ph))-MePhe-Ala-piperidine” to “MeAla-Val-MeLeu-Thr-MePhe-Gly-MeLeu-MeVal-Phe-Asp(SBn)-MePhe-Ala-piperidine”, the step yield rises from 33% to 60.0%.

Going from “S-benzyl (3S,6S,9S,12S,15S,21S,24S,27S)-27-amino-3-(((S)-1-(((S)-1-((2-amino-2-oxoethyl)amino)-3-hydroxy-1-oxopropan-2-yl)amino)-1-oxopropan-2-yl)(methyl)carbamoyl)-6,21-dibenzyl-15-isobutyl-9-isopropyl-12,22,24-trimethyl-5,8,11,14,17,20,23,26-octaoxo-4,7,10,13,16,19,22,25-octaazaoctacosane-1-thioate” to “S-benzyl (3S,6S,9S,12S,15S,21S,24S,27S)-27-amino-3-(((S)-1-(((S)-1-((2-amino-2-oxoethyl)amino)-3-hydroxy-1-oxopropan-2-yl)amino)-1-oxopropan-2-yl)(methyl)carbamoyl)-6,21-dibenzyl-15-isobutyl-9-isopropyl-12,22,24-trimethyl-5,8,11,14,17,20,23,26-octaoxo-28-phenyl-4,7,10,13,16,19,22,25-octaazaoctacosane-1-thioate”, the step yield rises from 73% to 87%.

First: S-benzyl (4S,7S,13S,16S,19S,22S,25S)-1-amino-25-(((S)-1-(((S)-1-((2-amino-2-oxoethyl)amino)-3-hydroxy-1-oxopropan-2-yl)amino)-1-oxopropan-2-yl)(methyl)carbamoyl)-7,22-dibenzyl-13-isobutyl-19-isopropyl-4,6,12,16-tetramethyl-2,5,8,11,14,17,20,23-octaoxo-3,6,9,12,15,18,21,24-octaazaheptacosane-27-thioate
Second: Sulfoxide (Compound P-117) by direct oxidation of Ac*-MeAla-Phe-MeLeu-Thr-MeGly-MeLeu-Ser(tBu)-MeIle-Cys*-piperidine (Compound P-111)
The step yield of the first is lower: 69.5% for the first, 83% for the second.

Going from “Sulfoxide of Ac*-MeAla-MePhe-MeLeu-Thr-MeGly-MeLeu-Ser(tBu)-MeIle-Cys*-piperidine compounds (cyclized at two * sites, Compound P-109)” to “c(Cys(CH2CONH2)-Thr(tBu)-Thr(tBu)-Thr(tBu)-Arg(Pbf)-Asp)-OH”, the step yield falls from 90% to 86%.

same assay, conditions: oxidative folding step

For “*Cys#-Lys(Me2)-Trp-^HoGly-Pro-Lys(H-Cys#)-Asp*-Pro-NH2, cyclized at two * sites and two # sites and having two SH groups forming a disulfide bond at # sites”, the oxidative folding yield was 49%.

same assay, conditions: whole synthesis

First: [NMeL]L[NMeL][NMeF]L[NMeF][NMeL][Ala(1H-tetrazol-5-yl)][NMeL][NMeL]D-Piperidide (lactam N-11; SMILES CC(C)C[C@@H]1NC(=O)[C@H](CC(C)C)N(C)C(=O)C[C@@H](C(=O)N2CCCCC2)NC(=O)[C@H](CC(C)C)N(C)C(=O)[C@H](CC(C)C)N(C)C(=O)[C@H](Cc2nn[nH]n2)NC(=O)[C@H](CC(C)C)N(C)C(=O)[C@H](Cc2ccccc2)N(C)C(=O)[C@H](CC(C)C)NC(=O)[C@H](Cc2ccccc2)N(C)C(=O)[C@H](CC(C)C)N(C)C1=O)
Second: ^HOGly-Pro-MeLeu-*Lys-MeAla-Leu-MeLeu-MeLeu-Asp-piperidine-MeLeu-MePhe(3-Cl)-Ile* (cyclized at two * sites)
The isolated mass of the first is higher: 1.92 mg for the first, 1.6 mg for the second.

same assay, conditions: whole synthesis, scale of the general procedure 250 to 300 mg resin per column

Compared with “[NMeL]L[NMeL][NMeF]L[NMeF][NMeL][Ala(1H-tetrazol-5-yl)][NMeL][NMeL]D-Piperidide (lactam N-11; SMILES CC(C)C[C@@H]1NC(=O)[C@H](CC(C)C)N(C)C(=O)C[C@@H](C(=O)N2CCCCC2)NC(=O)[C@H](CC(C)C)N(C)C(=O)[C@H](CC(C)C)N(C)C(=O)[C@H](Cc2nn[nH]n2)NC(=O)[C@H](CC(C)C)N(C)C(=O)[C@H](Cc2ccccc2)N(C)C(=O)[C@H](CC(C)C)NC(=O)[C@H](Cc2ccccc2)N(C)C(=O)[C@H](CC(C)C)N(C)C1=O)”, “^HOGly-Pro-MeLeu-*Lys-MeAla-Leu-MeLeu-MeLeu-Asp-piperidine-MeLeu-MePhe(3-Cl)-Ile* (cyclized at two * sites)” is lower in isolated yield: 4.8% for the first, 1.6% for the second.

experiment: general procedure: Fmoc solid-phase peptide synthesis; Fmoc-Ala-O-Trt(2-Cl) resin; DIC/HOAt; settings: whole synthesis, scale 20.2 μmol

Ac-Trp-D-Cys(StBu)-Pro-Lac-Ala-OH and Ac-Trp-D-Cys(StBu)-Pro-^HOGly-Ala-OH are the same in isolated mass: 3.0 mg for the first, 3.0 mg for the second.

Ac-Trp-D-Cys(StBu)-Pro-Lac-Ala-OH and Ac-Trp-D-Cys(StBu)-Pro-^HOGly-Ala-OH are the same in isolated yield: 22% for the first, 22% for the second.

same assay, conditions: whole synthesis, scale 80.9 μmol

Compared with Ac-Trp-Cys(StBu)-MeGly-^HOGly-Ala-OH, Ac-Trp-Cys(StBu)-Pro-Lac-Ala-OH is higher in isolated mass: 26.7 mg for the first, 51.4 mg for the second.

Going from Ac-Trp-Cys(StBu)-Pro-^HOGly(Me)2-Ala-OH to Ac-Trp-Cys(StBu)-Pro-^HOGly-Ala-OH, the isolated mass falls from 46.4 mg to 37.8 mg.

Going from Ac-Trp-D-Cys(StBu)-MeGly-^HOGly-Ala-OH to Ac-WC(StBu)P[PhLac]A-OH, the isolated mass rises from 36.5 mg to 51.2 mg.

In the case of Ac-WC(StBu)P[dPhLac]A-OH, the isolated mass is reported as 50.0 mg.

Going from Ac-Trp-Cys(StBu)-MeGly-^HOGly-Ala-OH to Ac-Trp-Cys(StBu)-Pro-Lac-Ala-OH, the isolated yield rises from 52% to 94%.

First: Ac-Trp-Cys(StBu)-Pro-^HOGly(Me)2-Ala-OH
Second: Ac-Trp-Cys(StBu)-Pro-^HOGly-Ala-OH
The isolated yield of the first is higher: 83% for the first, 70% for the second.

Compared with Ac-Trp-D-Cys(StBu)-MeGly-^HOGly-Ala-OH, Ac-WC(StBu)P[PhLac]A-OH is higher in isolated yield: 71% for the first, 84% for the second.

Work on Ac-WC(StBu)P[dPhLac]A-OH yielded an isolated yield of 82%.
